Source: PMC368434 (BMC Gastroenterology, 2004)

Tested on: rabbit gastric parietal cells
Assay: Acid accumulation assay
Type: cell-based
Conditions: up to concentrations of 10^-4 M (data not shown)

COc1ccc2cc([C@H](C)C(=O)O)ccc2c1 [naproxen]
Effect on acid accumulation by isolated rabbit parietal cells: no effect
